Measurements taken from paper PMC4848090, “Mechanistic insight into a peptide hormone signaling complex mediating floral organ abscission” (eLife, 2016).
Results are given in words; binding and its absence hold for the method and conditions named. Some results given as binding are weak or reduced against the parent protein; the word gives no strength.

T1: Arabidopsis thaliana HAESA ectodomain (residues 20–620) (Arabidopsis thaliana) (UniProt P47735)
T1 sequence (chain, N-glycans (glycoprotein of ~75 kDa)): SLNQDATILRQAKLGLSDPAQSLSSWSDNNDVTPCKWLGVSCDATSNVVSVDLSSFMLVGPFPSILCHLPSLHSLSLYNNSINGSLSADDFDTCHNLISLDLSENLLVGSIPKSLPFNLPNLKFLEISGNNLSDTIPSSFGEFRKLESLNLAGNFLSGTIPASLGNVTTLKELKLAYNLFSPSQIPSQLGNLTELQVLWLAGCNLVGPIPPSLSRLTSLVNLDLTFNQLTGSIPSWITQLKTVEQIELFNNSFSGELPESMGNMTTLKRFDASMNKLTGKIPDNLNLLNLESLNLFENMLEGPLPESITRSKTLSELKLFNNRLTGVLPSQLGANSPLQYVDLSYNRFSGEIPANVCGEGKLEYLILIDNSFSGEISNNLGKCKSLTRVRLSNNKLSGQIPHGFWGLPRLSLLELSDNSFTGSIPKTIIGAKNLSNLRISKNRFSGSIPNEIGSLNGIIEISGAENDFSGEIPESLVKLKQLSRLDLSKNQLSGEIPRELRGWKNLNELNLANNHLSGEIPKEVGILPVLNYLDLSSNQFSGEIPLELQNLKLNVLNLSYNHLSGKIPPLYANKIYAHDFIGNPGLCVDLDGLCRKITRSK


Experiments:
[1] = molecular target: Arabidopsis thaliana SERK1 ectodomain (residues 24–213, Asn115→Asp and Asn163→Gln) (Arabidopsis thaliana) (UniProt Q94AG2); test: SEC; Superdex 200 HR 10/30, 20 mM citric acid pH 5, 100 mM NaCl; isolated HAESA ectodomain (5.5 mg/mL) or isolated SERK1 LRR domain (3 mg/mL); both purified
[2] = molecular target: T1, Arabidopsis thaliana HAESA ectodomain (residues 20–620) (Arabidopsis thaliana); test: ITC; peptide solution (250 μM) injected in 10 μL aliquots into 20 μM HAESA ectodomain in the cell; 25°C; 20 mM citric acid pH 5.0, 100 mM NaCl; both purified
[3] = molecular target: T1, Arabidopsis thaliana HAESA ectodomain (residues 20–620) (Arabidopsis thaliana); test: SEC; Superdex 200 HR 10/30, 20 mM citric acid pH 5, 100 mM NaCl; isolated HAESA ectodomain (5.5 mg/mL) or isolated SERK1 LRR domain (3 mg/mL); both purified

Binder | binding [2] | also measured
Arabidopsis thaliana SERK1 ectodomain (residues 24–213, Asn115→Asp and Asn163→Gln) (domain or fragment, UniProt Q94AG2 24-213) ASANLEGDALHTLRVTLVDPNNVLQSWDPTLVNPCTWFHVTCNNENSVIRVDLGNAELSGHLVPELGVLKNLQYLELYSNNITGPIPSNLGDLTNLVSLDLYLNSFSGPIPESLGKLSKLRFLRLNNNSLTGSIPMSLTQITTLQVLDLSNNRLSGSVPDNGSFSLFTPISFANNLDLCGPVTSHPCPGS | – | binding [1]: no binding (tested: 3 mg/mL)
YPIPPSAPSKRHNSFVN (hydroxyproline (Hyp) at Hyp64 (IDA numbering)) [synthetic IDA-SFVN peptide YPIPPSA-Hyp-…] | no binding (tested: 250 μM peptide into 20 μM HAESA) | –
Arabidopsis thaliana HAESA ectodomain (residues 20–620) (domain or fragment, N-glycans (glycoprotein of ~75 kDa)) SLNQDATILRQAKLGLSDPAQSLSSWSDNNDVTPCKWLGVSCDATSNVVSVDLSSFMLVGPFPSILCHLPSLHSLSLYNNSINGSLSADDFDTCHNLISLDLSENLLVGSIPKSLPFNLPNLKFLEISGNNLSDTIPSSFGEFRKLESLNLAGNFLSGTIPASLGNVTTLKELKLAYNLFSPSQIPSQLGNLTELQVLWLAGCNLVGPIPPSLSRLTSLVNLDLTFNQLTGSIPSWITQLKTVEQIELFNNSFSGELPESMGNMTTLKRFDASMNKLTGKIPDNLNLLNLESLNLFENMLEGPLPESITRSKTLSELKLFNNRLTGVLPSQLGANSPLQYVDLSYNRFSGEIPANVCGEGKLEYLILIDNSFSGEISNNLGKCKSLTRVRLSNNKLSGQIPHGFWGLPRLSLLELSDNSFTGSIPKTIIGAKNLSNLRISKNRFSGSIPNEIGSLNGIIEISGAENDFSGEIPESLVKLKQLSRLDLSKNQLSGEIPRELRGWKNLNELNLANNHLSGEIPKEVGILPVLNYLDLSSNQFSGEIPLELQNLKLNVLNLSYNHLSGKIPPLYANKIYAHDFIGNPGLCVDLDGLCRKITRSK | – | binding [3]: no binding (tested: 5.5 mg/mL)

Continued, in another order:

binding [2] | Binder | also measured
binds weakly | YLVPPSGPSMRHN (hydroxyproline (Hyp) at the 8th residue of the printed peptide) [synthetic IDL1 peptide YLVPPSG-Hyp-SMRHN (ITC)] | –
binds weakly | YPKGVPIPPSAPSKRHN (hydroxyproline (Hyp) at Hyp64 (IDA numbering)) [synthetic PKGV-IDA peptide …-Hyp-SKRHN] | –
